Our source for the binding values is doi:10.1101/2022.10.07.511298.

Chains of the proteins cited; added tags and fusions are not shown.
UniProt P93830: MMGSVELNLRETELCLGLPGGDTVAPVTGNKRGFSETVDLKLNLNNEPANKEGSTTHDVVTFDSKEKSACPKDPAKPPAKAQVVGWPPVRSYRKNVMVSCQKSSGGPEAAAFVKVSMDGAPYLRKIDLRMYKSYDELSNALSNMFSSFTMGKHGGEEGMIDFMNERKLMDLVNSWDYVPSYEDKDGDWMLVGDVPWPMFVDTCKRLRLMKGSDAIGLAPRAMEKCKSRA

Results are given in words; binding and its absence hold for the method and conditions named. In cells and extracts the contact can be indirect. Some entries that bind do so weakly or less than the wild type. Sequences can lack the tags named with a protein.

The assay has as its target T1, TIR1-Myc (Arabidopsis thaliana) (UniProt Q570C0).
T1 sequence: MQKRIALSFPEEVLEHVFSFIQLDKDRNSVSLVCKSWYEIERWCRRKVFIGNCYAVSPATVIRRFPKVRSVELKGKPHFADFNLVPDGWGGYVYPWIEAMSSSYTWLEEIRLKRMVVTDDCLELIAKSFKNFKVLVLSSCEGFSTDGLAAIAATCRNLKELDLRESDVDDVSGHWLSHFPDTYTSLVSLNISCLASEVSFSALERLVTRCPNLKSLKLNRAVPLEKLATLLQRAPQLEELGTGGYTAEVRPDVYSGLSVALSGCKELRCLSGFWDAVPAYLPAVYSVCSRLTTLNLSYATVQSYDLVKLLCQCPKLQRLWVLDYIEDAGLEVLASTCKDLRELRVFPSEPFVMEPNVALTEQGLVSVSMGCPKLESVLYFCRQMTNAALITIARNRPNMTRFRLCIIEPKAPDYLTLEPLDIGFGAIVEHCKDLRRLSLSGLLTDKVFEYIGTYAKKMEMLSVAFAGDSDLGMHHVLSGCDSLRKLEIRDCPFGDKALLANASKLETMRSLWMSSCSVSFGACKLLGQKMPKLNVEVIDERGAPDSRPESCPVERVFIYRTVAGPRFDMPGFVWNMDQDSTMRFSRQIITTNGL
Nature of the assay: co-IP.

Regarding “His-IAA17 recombinant protein (from UniProt P93830 1-229)”, the binding result is listed as “binds”.
